According to paper PMC4632185:
No constants are given. Whether binding was seen depends on the method and setting. In cells and extracts the contact can be indirect. A result given as binding can be weak or reduced; the word gives no strength. Where a sequence is shown, tags or fusion partners need not be part of it.

Sequences of proteins named here, by UniProt entry; tags and fusion partners are left off. A change or cut given only in a name is not applied to a line headed by its entry.
UniProt Q8TDX7: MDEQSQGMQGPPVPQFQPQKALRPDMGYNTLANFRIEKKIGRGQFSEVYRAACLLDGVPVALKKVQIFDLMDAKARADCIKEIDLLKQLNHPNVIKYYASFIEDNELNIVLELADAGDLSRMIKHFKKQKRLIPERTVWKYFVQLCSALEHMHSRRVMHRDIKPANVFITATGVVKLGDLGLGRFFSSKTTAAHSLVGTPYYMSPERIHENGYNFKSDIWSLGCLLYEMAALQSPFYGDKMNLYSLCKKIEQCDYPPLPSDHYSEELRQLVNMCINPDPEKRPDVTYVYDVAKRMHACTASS

Target: T1, GST-Nek9-CTD (aa 726–979) (human) (UniProt Q8TD19)
T1 sequence: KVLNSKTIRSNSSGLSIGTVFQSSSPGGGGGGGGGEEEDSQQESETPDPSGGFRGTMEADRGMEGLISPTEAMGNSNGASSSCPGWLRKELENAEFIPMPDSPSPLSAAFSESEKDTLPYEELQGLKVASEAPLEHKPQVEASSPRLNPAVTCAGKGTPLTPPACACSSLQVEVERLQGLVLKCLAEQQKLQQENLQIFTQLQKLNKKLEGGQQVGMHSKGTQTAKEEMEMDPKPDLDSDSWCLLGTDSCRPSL
Assay: pull-down; GST co-precipitation: 100 μg GST-Nek9 protein immobilised on glutathione sepharose-4B beads, incubated with 100 μg Nek7 in 500 μl for 1 h at 4 °C; 50 mM HEPES pH 7.5, 300 mM NaCl, 5% glycerol, 5 mM dithiothreitol, 0.05% Tween-20; Coomassie staining or immunoblot with α-His6; both …

Nek7 with a mutation of Arg155 (from UniProt Q8TDX7) (enzyme)
binding: binds
